These are yes or no findings as the source states them, for the method shown. Binding seen in cells or lysates may run through a third protein. Some binding calls cover weakened binding; strength is not graded here. For some of these results: Sequences can lack the tags named with a protein.

The chains behind the UniProt entries cited, without tags or fusion partners.
UniProt P17844: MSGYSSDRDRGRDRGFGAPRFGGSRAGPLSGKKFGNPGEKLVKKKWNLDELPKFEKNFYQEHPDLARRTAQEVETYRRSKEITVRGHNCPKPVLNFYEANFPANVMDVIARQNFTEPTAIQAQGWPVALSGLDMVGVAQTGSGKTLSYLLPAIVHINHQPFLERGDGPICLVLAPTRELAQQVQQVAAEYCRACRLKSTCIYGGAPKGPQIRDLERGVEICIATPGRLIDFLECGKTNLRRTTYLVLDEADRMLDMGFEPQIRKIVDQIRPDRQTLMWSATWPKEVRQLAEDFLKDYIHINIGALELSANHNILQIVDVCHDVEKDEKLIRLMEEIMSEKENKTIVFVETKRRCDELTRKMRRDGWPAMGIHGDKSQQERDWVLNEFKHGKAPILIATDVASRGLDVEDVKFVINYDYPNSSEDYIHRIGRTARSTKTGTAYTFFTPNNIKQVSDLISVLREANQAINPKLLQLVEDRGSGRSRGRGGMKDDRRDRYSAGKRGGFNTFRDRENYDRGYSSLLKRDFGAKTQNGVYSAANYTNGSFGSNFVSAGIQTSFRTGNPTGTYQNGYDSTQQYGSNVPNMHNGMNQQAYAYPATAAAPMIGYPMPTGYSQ
UniProt Q92841: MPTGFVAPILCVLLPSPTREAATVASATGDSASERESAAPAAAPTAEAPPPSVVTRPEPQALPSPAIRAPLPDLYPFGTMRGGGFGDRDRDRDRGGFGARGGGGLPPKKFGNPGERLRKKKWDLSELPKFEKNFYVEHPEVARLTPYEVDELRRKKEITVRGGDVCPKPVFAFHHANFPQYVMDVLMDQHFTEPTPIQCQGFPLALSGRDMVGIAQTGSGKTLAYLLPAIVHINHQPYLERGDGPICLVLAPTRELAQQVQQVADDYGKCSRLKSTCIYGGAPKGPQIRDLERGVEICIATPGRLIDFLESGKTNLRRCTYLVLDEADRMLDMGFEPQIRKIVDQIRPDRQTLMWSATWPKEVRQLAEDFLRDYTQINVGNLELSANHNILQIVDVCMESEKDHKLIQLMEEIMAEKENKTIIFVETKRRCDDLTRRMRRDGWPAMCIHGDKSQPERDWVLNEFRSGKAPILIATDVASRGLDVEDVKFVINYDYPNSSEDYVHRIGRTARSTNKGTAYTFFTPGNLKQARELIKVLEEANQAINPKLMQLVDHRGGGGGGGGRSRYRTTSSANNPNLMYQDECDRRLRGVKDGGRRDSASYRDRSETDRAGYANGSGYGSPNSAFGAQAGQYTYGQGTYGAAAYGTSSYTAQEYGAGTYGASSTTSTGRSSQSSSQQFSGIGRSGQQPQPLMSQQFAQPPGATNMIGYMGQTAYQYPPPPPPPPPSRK
UniProt P51114: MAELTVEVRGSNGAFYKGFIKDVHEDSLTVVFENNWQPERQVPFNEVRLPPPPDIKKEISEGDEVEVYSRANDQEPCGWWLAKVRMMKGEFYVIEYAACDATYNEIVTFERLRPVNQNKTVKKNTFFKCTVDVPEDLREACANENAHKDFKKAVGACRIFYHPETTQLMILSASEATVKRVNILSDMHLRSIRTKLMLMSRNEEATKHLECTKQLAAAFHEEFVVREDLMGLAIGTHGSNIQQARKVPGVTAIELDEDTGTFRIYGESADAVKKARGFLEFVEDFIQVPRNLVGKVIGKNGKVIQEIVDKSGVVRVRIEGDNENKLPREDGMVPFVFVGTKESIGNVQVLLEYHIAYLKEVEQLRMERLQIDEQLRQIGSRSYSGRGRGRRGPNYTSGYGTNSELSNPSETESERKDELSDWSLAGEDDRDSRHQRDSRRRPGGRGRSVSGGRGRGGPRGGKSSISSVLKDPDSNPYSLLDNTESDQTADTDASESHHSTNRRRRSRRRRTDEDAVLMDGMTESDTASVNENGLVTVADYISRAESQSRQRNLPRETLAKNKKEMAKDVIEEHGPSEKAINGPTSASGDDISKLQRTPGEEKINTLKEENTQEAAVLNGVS
UniProt P51116: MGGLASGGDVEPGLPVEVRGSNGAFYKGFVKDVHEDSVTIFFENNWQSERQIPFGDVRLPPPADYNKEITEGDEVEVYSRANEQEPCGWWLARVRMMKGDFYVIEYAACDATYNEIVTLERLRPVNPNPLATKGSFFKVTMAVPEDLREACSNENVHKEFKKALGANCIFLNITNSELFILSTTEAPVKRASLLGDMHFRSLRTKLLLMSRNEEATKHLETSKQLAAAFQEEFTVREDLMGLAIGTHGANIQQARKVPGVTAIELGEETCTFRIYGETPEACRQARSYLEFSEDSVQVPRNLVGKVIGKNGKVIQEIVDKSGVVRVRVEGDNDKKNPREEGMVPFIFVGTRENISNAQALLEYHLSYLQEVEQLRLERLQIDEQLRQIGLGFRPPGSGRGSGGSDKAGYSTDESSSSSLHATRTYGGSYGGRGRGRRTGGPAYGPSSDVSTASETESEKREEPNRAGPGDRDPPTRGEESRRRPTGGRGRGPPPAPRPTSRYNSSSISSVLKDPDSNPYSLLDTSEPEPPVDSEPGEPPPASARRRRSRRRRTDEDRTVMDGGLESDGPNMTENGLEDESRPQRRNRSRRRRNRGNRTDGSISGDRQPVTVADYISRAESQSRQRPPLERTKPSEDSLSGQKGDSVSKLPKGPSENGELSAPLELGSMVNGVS

In one test the target is T1, FLAG-ZRF1 (human) (UniProt Q99543).
T1 sequence: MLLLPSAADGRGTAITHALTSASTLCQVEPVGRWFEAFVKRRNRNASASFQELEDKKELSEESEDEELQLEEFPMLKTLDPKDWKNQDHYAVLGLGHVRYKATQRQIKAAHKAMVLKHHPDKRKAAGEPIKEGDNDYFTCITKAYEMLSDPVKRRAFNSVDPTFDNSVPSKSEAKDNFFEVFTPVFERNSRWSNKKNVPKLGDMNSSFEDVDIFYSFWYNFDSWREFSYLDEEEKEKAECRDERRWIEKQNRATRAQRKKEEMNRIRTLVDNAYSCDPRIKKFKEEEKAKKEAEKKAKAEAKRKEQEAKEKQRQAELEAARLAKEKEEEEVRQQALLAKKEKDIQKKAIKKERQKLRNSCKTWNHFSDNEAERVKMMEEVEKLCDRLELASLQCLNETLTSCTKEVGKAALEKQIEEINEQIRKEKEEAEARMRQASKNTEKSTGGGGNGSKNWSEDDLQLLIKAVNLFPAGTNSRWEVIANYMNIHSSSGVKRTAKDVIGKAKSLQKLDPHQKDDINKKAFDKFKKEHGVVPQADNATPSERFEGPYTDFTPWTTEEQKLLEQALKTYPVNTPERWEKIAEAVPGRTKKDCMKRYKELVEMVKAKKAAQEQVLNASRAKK
Description: co-IP; HEK293T cells, transfected; FLAG-tagged protein as bait, tagged partner detected by immunoblot.

The target in test [1] is T2, ZRF1 (endogenous) (human (endogenous in HEK293T)) (UniProt Q99543).
T2 sequence: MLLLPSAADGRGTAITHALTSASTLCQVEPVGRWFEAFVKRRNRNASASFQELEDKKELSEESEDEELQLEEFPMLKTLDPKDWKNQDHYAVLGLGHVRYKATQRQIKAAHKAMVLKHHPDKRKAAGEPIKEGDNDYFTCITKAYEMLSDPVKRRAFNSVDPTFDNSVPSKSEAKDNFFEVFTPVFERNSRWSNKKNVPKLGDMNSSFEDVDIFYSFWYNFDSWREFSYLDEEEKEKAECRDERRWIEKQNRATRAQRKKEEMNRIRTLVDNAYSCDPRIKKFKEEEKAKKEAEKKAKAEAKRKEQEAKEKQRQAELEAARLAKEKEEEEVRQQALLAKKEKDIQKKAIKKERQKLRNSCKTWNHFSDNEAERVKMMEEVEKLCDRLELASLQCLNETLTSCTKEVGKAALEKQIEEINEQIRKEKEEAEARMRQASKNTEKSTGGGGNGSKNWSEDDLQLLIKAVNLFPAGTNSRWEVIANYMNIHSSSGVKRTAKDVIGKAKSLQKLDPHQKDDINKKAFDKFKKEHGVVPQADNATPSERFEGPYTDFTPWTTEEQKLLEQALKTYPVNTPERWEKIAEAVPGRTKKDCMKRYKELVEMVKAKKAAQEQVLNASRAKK
The experiment in a line: co-IP; IP with a ZRF1 antibody of endogenous ZRF1 from HEK293T cells, immunoblot for FMRP, FXR1, FXR2; IgG as negative control. Background: Immunoblotting shows a protein as a band on a membrane.

The next test addresses FLAG-AGO1 (UniProt Q9UL18). Description: co-IP; HEK293T cells, transfected; FLAG-tagged protein as bait, tagged partner detected by immunoblot.
A further test has as its target T3, SERBP1-GFP (human) (UniProt Q8NC51).
T3 sequence: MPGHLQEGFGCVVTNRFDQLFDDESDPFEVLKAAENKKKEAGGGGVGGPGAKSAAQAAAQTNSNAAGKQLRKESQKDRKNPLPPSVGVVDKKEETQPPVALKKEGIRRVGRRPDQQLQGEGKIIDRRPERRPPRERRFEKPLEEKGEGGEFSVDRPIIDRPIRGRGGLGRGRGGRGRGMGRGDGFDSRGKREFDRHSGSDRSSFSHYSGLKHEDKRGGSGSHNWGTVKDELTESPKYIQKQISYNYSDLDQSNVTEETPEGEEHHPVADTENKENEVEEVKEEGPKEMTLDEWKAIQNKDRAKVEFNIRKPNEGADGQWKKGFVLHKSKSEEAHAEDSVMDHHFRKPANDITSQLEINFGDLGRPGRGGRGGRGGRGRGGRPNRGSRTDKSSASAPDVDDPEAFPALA
Description: co-IP; HEK293T cells, transfected; reciprocal IP by the GFP-tagged partner, FLAG-ZRF1 detected.

On to DDX5-GFP (from UniProt P17844 1-614), for which, in the test with FLAG-ZRF1 (human), the binding result is reported as “binds”. Same read-out and setting: under DDX17-Myc (from UniProt Q92841 1-729) stands “binds”. On to “FXR1 (endogenous) (from UniProt P51114 1-621)”, for which, in test [1], the binding result was “binds”. On the same count and under the same terms, to “FXR2 (endogenous) (from UniProt P51116 1-673)” belongs “binds”.

B1: ZRF1-GFP (protein, UniProt Q99543 1-621)
chain: MLLLPSAADGRGTAITHALTSASTLCQVEPVGRWFEAFVKRRNRNASASFQELEDKKELSEESEDEELQLEEFPMLKTLDPKDWKNQDHYAVLGLGHVRYKATQRQIKAAHKAMVLKHHPDKRKAAGEPIKEGDNDYFTCITKAYEMLSDPVKRRAFNSVDPTFDNSVPSKSEAKDNFFEVFTPVFERNSRWSNKKNVPKLGDMNSSFEDVDIFYSFWYNFDSWREFSYLDEEEKEKAECRDERRWIEKQNRATRAQRKKEEMNRIRTLVDNAYSCDPRIKKFKEEEKAKKEAEKKAKAEAKRKEQEAKEKQRQAELEAARLAKEKEEEEVRQQALLAKKEKDIQKKAIKKERQKLRNSCKTWNHFSDNEAERVKMMEEVEKLCDRLELASLQCLNETLTSCTKEVGKAALEKQIEEINEQIRKEKEEAEARMRQASKNTEKSTGGGGNGSKNWSEDDLQLLIKAVNLFPAGTNSRWEVIANYMNIHSSSGVKRTAKDVIGKAKSLQKLDPHQKDDINKKAFDKFKKEHGVVPQADNATPSERFEGPYTDFTPWTTEEQKLLEQALKTYPVNTPERWEKIAEAVPGRTKKDCMKRYKELVEMVKAKKAAQEQVLNASRAKK
For B1, the binding result in the test with FLAG-AGO1 is given as “binds”.

B2: FLAG-ZRF1 (protein, UniProt Q99543 1-621)
chain: MLLLPSAADGRGTAITHALTSASTLCQVEPVGRWFEAFVKRRNRNASASFQELEDKKELSEESEDEELQLEEFPMLKTLDPKDWKNQDHYAVLGLGHVRYKATQRQIKAAHKAMVLKHHPDKRKAAGEPIKEGDNDYFTCITKAYEMLSDPVKRRAFNSVDPTFDNSVPSKSEAKDNFFEVFTPVFERNSRWSNKKNVPKLGDMNSSFEDVDIFYSFWYNFDSWREFSYLDEEEKEKAECRDERRWIEKQNRATRAQRKKEEMNRIRTLVDNAYSCDPRIKKFKEEEKAKKEAEKKAKAEAKRKEQEAKEKQRQAELEAARLAKEKEEEEVRQQALLAKKEKDIQKKAIKKERQKLRNSCKTWNHFSDNEAERVKMMEEVEKLCDRLELASLQCLNETLTSCTKEVGKAALEKQIEEINEQIRKEKEEAEARMRQASKNTEKSTGGGGNGSKNWSEDDLQLLIKAVNLFPAGTNSRWEVIANYMNIHSSSGVKRTAKDVIGKAKSLQKLDPHQKDDINKKAFDKFKKEHGVVPQADNATPSERFEGPYTDFTPWTTEEQKLLEQALKTYPVNTPERWEKIAEAVPGRTKKDCMKRYKELVEMVKAKKAAQEQVLNASRAKK
On to B2, for which the binding result with SERBP1-GFP (human) is “binds”.

B3: DDX21-V5 (protein, UniProt Q9NR30 1-783)
chain: MPGKLRSDAGLESDTAMKKGETLRKQTEEKEKKEKPKSDKTEEIAEEEETVFPKAKQVKKKAEPSEVDMNSPKSKKAKKKEEPSQNDISPKTKSLRKKKEPIEKKVVSSKTKKVTKNEEPSEEEIDAPKPKKMKKEKEMNGETREKSPKLKNGFPHPEPDCNPSEAASEESNSEIEQEIPVEQKEGAFSNFPISEETIKLLKGRGVTFLFPIQAKTFHHVYSGKDLIAQARTGTGKTFSFAIPLIEKLHGELQDRKRGRAPQVLVLAPTRELANQVSKDFSDITKKLSVACFYGGTPYGGQFERMRNGIDILVGTPGRIKDHIQNGKLDLTKLKHVVLDEVDQMLDMGFADQVEEILSVAYKKDSEDNPQTLLFSATCPHWVFNVAKKYMKSTYEQVDLIGKKTQKTAITVEHLAIKCHWTQRAAVIGDVIRVYSGHQGRTIIFCETKKEAQELSQNSAIKQDAQSLHGDIPQKQREITLKGFRNGSFGVLVATNVAARGLDIPEVDLVIQSSPPKDVESYIHRSGRTGRAGRTGVCICFYQHKEEYQLVQVEQKAGIKFKRIGVPSATEIIKASSKDAIRLLDSVPPTAISHFKQSAEKLIEEKGAVEALAAALAHISGATSVDQRSLINSNVGFVTMILQCSIEMPNISYAWKELKEQLGEEIDSKVKGMVFLKGKLGVCFDVPTASVTEIQEKWHDSRRWQLSVATEQPELEGPREGYGGFRGQREGSRGFRGQRDGNRRFRGQREGSRGPRGQRSGGGNKSNRSQNKGQKRSFSKAFGQ
For B3, the binding entry in the test with FLAG-ZRF1 (human) is “binds”.

Values taken from article PMC12574921.
